# Test results reported in the supplement of paper PMC8728848.
# This is one part of the list.
# B1: Clec18Av1 (Homo sapiens), A5D8T8 (protein)
# chain: MLHPETSPGRGHLLAVLLALLGTAWAEVWPPQLQEQAPMAGALNRKESFLLLSLHNRLRSWVQPPAADMRRLDWSDSLAQLAQARAALCGTPTPSLASGLWRTLQVGWNMQLLPAGLVSFVEVVSLWFAEGQRYSHAAGECARNATCTHYTQLVWATSSQLGCGRHLCSAGQAAIEAFVCAYSPRGNWEVNGKTIVPYKKGAWCSLCTASVSGCFKAWDHAGGLCEVPRNPCRMSCQNHGRLNISTCHCHCPPGYTGRYCQVRCSLQCVHGRFREEECSCVCDIGYGGAQCATKVHFPFHTCDLRIDGDCFMVSSEADTYYRARMKCQRKGGVLAQIKSQKVQDILAFYLGRLETTNEVIDSDFETRNFWIGLTYKTAKDSFRWATGEHQAFTSFAFGQPDNHGFGNCVELQASAAFNWNDQRCKTRNRYICQFAQEHISRWGPGS
# Tests used:
# Experiment in all cases: glycan array binding signal (z-score within array); higher = stronger binding
# Conditions in all cases: glycan notation: IUPAC condensed, linker removed
# Fuc(a1-2)Gal = biological target: Fuc(a1-2)Gal
# Outline: (§1)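 Glycan array binding is given as a within-array Z-score, which can be read as non-binding when negative. The arrays, 3228 of them, came from the Consortium for Functional Glycomics database and were retained only where the protein sequence was available. Z-scores were averaged across arrays of the same protein sequence at different concentrations or buffers and across linkers.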
# Fuc(a1-2)Gal(b1-3)GalNAc = biological target: Fuc(a1-2)Gal(b1-3)GalNAc
# Outline: as §1
# [1] = biological target: Fuc(a1-2)Gal(b1-3)GalNAc(a1-3)[Fuc(a1-2)]Gal(b1-4)Glc
# Outline: as §1
# [2] = biological target: Fuc(a1-2)Gal(b1-3)GalNAc(a1-3)[Fuc(a1-2)]Gal(b1-4)GlcNAc
# Outline: as §1
# [3] = biological target: Fuc(a1-2)Gal(b1-3)GalNAc(b1-3)Gal
# Outline: as §1
# [4] = biological target: Fuc(a1-2)Gal(b1-3)GalNAc(b1-3)Gal(a1-4)Gal(b1-4)Glc
# Outline: as §1
# [5] = biological target: Fuc(a1-2)Gal(b1-3)GalNAc(b1-4)[Neu5Ac(a2-3)]Gal(b1-4)Glc
# Outline: as §1
# Fuc(a1-2)Gal(b1-3)GlcNAc = biological target: Fuc(a1-2)Gal(b1-3)GlcNAc
# Outline: as §1
# [6] = biological target: Fuc(a1-2)Gal(b1-3)GlcNAc(b1-2)Man(a1-3)[Fuc(a1-2)Gal(b1-3)GlcNAc(b1-2)Man(a1-6)]Man(b1-4)GlcNAc(b1-4)GlcNAc
# Outline: as §1
# [7] = biological target: Fuc(a1-2)Gal(b1-3)GlcNAc(b1-2)Man(a1-3)[Fuc(a1-2)Gal(b1-3)GlcNAc(b1-2)Man(a1-6)]Man(b1-4)GlcNAc(b1-4)[Fuc(a1-6)]GlcNAc
# Outline: as §1
# [8] = biological target: Fuc(a1-2)Gal(b1-3)GlcNAc(b1-3)Gal(b1-4)Glc
# Outline: as §1
# [9] = biological target: Fuc(a1-2)Gal(b1-3)GlcNAc(b1-3)GalNAc
# Outline: as §1
# [10] = biological target: Fuc(a1-2)Gal(b1-3)GlcNAc(b1-3)[Fuc(a1-2)Gal(b1-3)GlcNAc(b1-6)]GalNAc
# Outline: as §1
# [11] = biological target: Fuc(a1-2)Gal(b1-3)GlcNAc(b1-3)[Gal(b1-4)GlcNAc(b1-6)]Gal(b1-4)Glc
# Outline: as §1
# [12] = biological target: Fuc(a1-2)Gal(b1-3)GlcNAc(b1-3)[Neu5Ac(a2-6)Gal(b1-4)GlcNAc(b1-6)]Gal(b1-4)Glc
# Outline: as §1
# [13] = biological target: Fuc(a1-2)Gal(b1-3)GlcNAc6S
# Outline: as §1
# [14] = biological target: Fuc(a1-2)Gal(b1-3)[Fuc(a1-4)]GlcNAc
# Outline: as §1
# [15] = biological target: Fuc(a1-2)Gal(b1-3)[Fuc(a1-4)]GlcNAc(b1-2)Man(a1-3)[Fuc(a1-2)Gal(b1-3)[Fuc(a1-4)]GlcNAc(b1-2)Man(a1-3)]Man(b1-4)GlcNAc(b1-4)GlcNAc
# Outline: as §1
# [16] = biological target: Fuc(a1-2)Gal(b1-3)[Fuc(a1-4)]GlcNAc(b1-2)Man(a1-3)[Fuc(a1-2)Gal(b1-3)[Fuc(a1-4)]GlcNAc(b1-2)Man(a1-6)]Man(b1-4)GlcNAc(b1-4)[Fuc(a1-6)]GlcNAc(b1-4)[Fuc(a1-6)]GlcNAc
# Outline: as §1
# [17] = biological target: Fuc(a1-2)Gal(b1-3)[Fuc(a1-4)]GlcNAc(b1-3)[Fuc(a1-3)[Gal(b1-4)]GlcNAc(b1-6)]Gal(b1-4)Glc
# Outline: as §1
# [18] = biological target: Fuc(a1-2)Gal(b1-3)[Fuc(a1-4)]GlcNAc(b1-3)[Gal(b1-4)GlcNAc(b1-6)]Gal(b1-4)Glc
# Outline: as §1
# Fuc(a1-2)Gal(b1-4)Glc = biological target: Fuc(a1-2)Gal(b1-4)Glc
# Outline: as §1
# Fuc(a1-2)Gal(b1-4)Glc6S = biological target: Fuc(a1-2)Gal(b1-4)Glc6S
# Outline: as §1
# Fuc(a1-2)Gal(b1-4)GlcNAc = biological target: Fuc(a1-2)Gal(b1-4)GlcNAc
# Outline: as §1
# [19] = biological target: Fuc(a1-2)Gal(b1-4)GlcNAc(b1-2)Man
# Outline: as §1
# [20] = biological target: Fuc(a1-2)Gal(b1-4)GlcNAc(b1-2)Man(a1-3)[Fuc(a1-2)Gal(b1-4)GlcNAc(b1-2)Man(a1-6)]Man(b1-4)GlcNAc(b1-4)GlcNAc
# Outline: as §1
# [21] = biological target: Fuc(a1-2)Gal(b1-4)GlcNAc(b1-2)Man(a1-3)[Fuc(a1-2)Gal(b1-4)GlcNAc(b1-2)Man(a1-6)]Man(b1-4)GlcNAc(b1-4)[Fuc(a1-6)]GlcNAc
# Outline: as §1
# [22] = biological target: Fuc(a1-2)Gal(b1-4)GlcNAc(b1-2)[Fuc(a1-2)Gal(b1-4)GlcNAc(b1-4)]Man(a1-3)[Fuc(a1-2)Gal(b1-4)GlcNAc(b1-2)Man(a1-6)]Man(b1-4)GlcNAc(b1-4)GlcNAc
# Outline: as §1
# [23] = biological target: Fuc(a1-2)Gal(b1-4)GlcNAc(b1-3)Gal(b1-4)GlcNAc
# Outline: as §1
# [24] = biological target: Fuc(a1-2)Gal(b1-4)GlcNAc(b1-3)Gal(b1-4)GlcNAc(b1-2)Man(a1-3)[Fuc(a1-2)Gal(b1-4)GlcNAc(b1-3)Gal(b1-4)GlcNAc(b1-2)Man(a1-6)]Man(b1-4)GlcNAc(b1-4)GlcNAc
# Outline: as §1
binder,measurement,setting,value
B1,glycan array binding signal (z-score),Fuc(a1-2)Gal,-0.567
same,glycan array binding signal (z-score),Fuc(a1-2)Gal(b1-3)GalNAc,0.22
same,glycan array binding signal (z-score),[1],-0.116
same,glycan array binding signal (z-score),[2],-0.489
same,glycan array binding signal (z-score),[3],-0.071
same,glycan array binding signal (z-score),[4],-0.849
same,glycan array binding signal (z-score),[5],-0.605
same,glycan array binding signal (z-score),Fuc(a1-2)Gal(b1-3)GlcNAc,-0.371
same,glycan array binding signal (z-score),[6],0.583
same,glycan array binding signal (z-score),[7],-0.64
same,glycan array binding signal (z-score),[8],-0.818
same,glycan array binding signal (z-score),[9],-0.519
same,glycan array binding signal (z-score),[10],4.48
same,glycan array binding signal (z-score),[11],2.06
same,glycan array binding signal (z-score),[12],-0.787
same,glycan array binding signal (z-score),[13],-0.214
same,glycan array binding signal (z-score),[14],-0.825
same,glycan array binding signal (z-score),[15],0.851
same,glycan array binding signal (z-score),[16],-0.318
same,glycan array binding signal (z-score),[17],0.626
same,glycan array binding signal (z-score),[18],-0.5
same,glycan array binding signal (z-score),Fuc(a1-2)Gal(b1-4)Glc,-0.781
same,glycan array binding signal (z-score),Fuc(a1-2)Gal(b1-4)Glc6S,-0.03
same,glycan array binding signal (z-score),Fuc(a1-2)Gal(b1-4)GlcNAc,-0.697
same,glycan array binding signal (z-score),[19],0.267
same,glycan array binding signal (z-score),[20],2.64
same,glycan array binding signal (z-score),[21],-0.272
same,glycan array binding signal (z-score),[22],0.027
same,glycan array binding signal (z-score),[23],-0.855
same,glycan array binding signal (z-score),[24],-0.205
